This is an account of results in paper PMC6609635.

Sequences of proteins named here, by UniProt entry; tags and fusion partners are left off.
UniProt Q6NZM9: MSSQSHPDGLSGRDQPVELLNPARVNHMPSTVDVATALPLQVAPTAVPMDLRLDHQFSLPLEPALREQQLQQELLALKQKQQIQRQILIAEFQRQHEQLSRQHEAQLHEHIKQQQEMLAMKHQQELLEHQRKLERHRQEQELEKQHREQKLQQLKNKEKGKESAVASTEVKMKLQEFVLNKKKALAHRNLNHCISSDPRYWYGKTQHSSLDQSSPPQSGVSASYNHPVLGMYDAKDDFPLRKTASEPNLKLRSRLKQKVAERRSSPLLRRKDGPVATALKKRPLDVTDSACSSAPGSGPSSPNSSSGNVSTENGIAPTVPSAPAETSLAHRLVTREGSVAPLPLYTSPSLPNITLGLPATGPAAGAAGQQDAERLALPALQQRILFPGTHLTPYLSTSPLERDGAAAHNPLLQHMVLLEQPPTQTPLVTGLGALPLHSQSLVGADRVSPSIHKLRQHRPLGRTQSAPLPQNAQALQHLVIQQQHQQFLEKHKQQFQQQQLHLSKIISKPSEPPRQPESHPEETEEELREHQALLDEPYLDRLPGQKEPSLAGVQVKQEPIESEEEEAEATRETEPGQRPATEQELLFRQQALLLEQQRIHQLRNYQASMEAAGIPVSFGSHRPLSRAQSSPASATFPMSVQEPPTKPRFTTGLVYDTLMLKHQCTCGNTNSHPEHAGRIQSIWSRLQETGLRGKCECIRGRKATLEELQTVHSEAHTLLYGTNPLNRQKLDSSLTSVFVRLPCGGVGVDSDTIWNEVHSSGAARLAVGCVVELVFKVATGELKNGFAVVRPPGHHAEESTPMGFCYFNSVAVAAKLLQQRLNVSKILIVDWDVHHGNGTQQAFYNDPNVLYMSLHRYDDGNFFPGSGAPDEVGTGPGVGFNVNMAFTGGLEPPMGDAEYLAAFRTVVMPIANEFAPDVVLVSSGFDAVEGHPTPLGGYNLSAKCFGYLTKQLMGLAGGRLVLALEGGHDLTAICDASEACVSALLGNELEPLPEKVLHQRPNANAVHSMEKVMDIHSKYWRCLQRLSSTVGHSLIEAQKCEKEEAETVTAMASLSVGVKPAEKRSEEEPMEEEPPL
UniProt P56524: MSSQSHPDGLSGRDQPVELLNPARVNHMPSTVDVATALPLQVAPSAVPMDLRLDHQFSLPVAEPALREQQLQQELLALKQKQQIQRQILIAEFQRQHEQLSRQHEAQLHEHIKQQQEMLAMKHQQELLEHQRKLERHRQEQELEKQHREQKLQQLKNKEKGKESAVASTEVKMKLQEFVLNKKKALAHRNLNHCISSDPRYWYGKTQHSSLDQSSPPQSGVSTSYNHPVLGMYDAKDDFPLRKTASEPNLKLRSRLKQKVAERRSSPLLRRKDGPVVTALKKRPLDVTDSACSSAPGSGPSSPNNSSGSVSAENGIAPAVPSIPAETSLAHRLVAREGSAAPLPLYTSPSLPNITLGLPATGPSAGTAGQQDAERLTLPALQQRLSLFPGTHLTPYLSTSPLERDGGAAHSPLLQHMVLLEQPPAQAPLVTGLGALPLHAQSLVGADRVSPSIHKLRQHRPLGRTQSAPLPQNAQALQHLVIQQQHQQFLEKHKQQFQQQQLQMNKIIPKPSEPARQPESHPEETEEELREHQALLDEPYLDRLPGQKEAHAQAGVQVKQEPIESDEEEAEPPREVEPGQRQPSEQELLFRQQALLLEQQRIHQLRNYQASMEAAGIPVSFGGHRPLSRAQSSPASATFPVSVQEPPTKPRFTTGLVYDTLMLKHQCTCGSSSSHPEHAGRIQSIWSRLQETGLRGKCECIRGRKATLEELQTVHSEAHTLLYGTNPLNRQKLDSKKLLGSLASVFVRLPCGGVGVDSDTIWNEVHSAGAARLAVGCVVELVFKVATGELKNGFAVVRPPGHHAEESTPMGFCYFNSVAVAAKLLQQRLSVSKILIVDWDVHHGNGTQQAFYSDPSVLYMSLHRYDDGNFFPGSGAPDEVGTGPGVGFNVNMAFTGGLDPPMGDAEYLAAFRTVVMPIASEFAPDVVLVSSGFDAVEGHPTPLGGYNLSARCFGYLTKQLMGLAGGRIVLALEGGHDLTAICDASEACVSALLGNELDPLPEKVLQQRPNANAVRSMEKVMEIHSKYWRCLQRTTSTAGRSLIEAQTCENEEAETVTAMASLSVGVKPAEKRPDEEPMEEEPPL
UniProt Q63943: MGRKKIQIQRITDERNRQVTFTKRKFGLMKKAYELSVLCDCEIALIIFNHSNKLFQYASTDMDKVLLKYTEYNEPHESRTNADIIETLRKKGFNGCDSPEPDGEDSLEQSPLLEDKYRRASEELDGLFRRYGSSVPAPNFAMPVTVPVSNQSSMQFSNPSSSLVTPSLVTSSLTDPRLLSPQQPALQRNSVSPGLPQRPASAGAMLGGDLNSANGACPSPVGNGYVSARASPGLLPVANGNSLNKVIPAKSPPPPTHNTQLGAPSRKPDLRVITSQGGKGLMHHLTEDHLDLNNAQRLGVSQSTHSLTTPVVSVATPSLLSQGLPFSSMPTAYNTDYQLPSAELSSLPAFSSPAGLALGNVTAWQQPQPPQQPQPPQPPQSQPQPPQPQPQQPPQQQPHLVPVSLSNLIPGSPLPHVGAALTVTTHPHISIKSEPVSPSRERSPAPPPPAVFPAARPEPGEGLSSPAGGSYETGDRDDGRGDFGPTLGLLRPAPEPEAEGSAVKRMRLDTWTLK

The target of assay [1] is HDAC4, endogenous (mouse (endogenous in C2C12)) (UniProt Q6NZM9). Briefly: co-IP; immunoprecipitation of endogenous HDAC4 (control Ig as control) from control (shCTL) and Bδ-KD (shBδ) C2C12 myoblasts at day 3 of differentiation; blot with anti-HDAC4 and anti-MEF2D.
Assay [2] concerns the target Flag-tagged HDAC4 (histone deacetylase 4) (UniProt P56524). Nature of the assay: co-IP; Flag immunoprecipitation of Flag-tagged HDAC4 or HDAC5 from proliferating C2C12 cells; blot with anti-Flag and anti-PP2A-Bδ.

These are yes or no findings as the source states them, for the method shown. In cells and extracts the contact can be indirect. Some entries that bind do so weakly or less than the wild type.

For the molecule “MEF2D (Myocyte enhancer factor 2D), endogenous (from UniProt Q63943 1-514)”, in assay [1], the binding entry was “binds”.

B1: PP2A-Bδ (B55δ regulatory subunit of protein phosphatase 2A), endogenous (protein, UniProt Q925E7 1-453)
chain: MAGAGGGGCPAGGNDFQWCFSQVKGAVDEDVAEADIISTVEFNYSGDLLATGDKGGRVVIFQREQENKGRAHSRGEYNVYSTFQSHEPEFDYLKSLEIEEKINKIRWLPQQNAAHFLLSTNDKTIKLWKISERDKRAEGYNLKDEDGRLRDPFRITALRVPILKPMDLMVEASPRRIFANAHTYHINSISVNSDHETYLSADDLRINLWHLEITDRSFNIVDIKPANMEELTEVITAAEFHPHQCNVFVYSSSKGTIRLCDMRSSALCDRHAKFFEEPEDPSSRSFFSEIISSISDVKFSHSGRYMMTRDYLSVKVWDLNMEGRPVETHQVHEYLRSKLCSLYENDCIFDKFECCWNGSDSAIMTGSYNNFFRMFDRNTRRDVTLEASRENSKPRASLKPRKVCTGGKRKKDEISVDSLDFNKKILHTAWHPMESIIAVAATNNLYIFQDKIN
As to B1, in assay [2], the binding result is listed as “binds”.
